Data as given in PMC10216351.
Results are given in words; binding and its absence hold for the method and conditions named. In cells and extracts the contact can be indirect. A yes stands for co-enrichment or nearness to the bait. Other partners may have been found. Values belong to the binder of their own block, whether it stands above or below them.

Target: T1, CERS6 (ceramide synthase 6), endogenous (human (endogenous in A549)) (UniProt Q6ZMG9)
T1 sequence: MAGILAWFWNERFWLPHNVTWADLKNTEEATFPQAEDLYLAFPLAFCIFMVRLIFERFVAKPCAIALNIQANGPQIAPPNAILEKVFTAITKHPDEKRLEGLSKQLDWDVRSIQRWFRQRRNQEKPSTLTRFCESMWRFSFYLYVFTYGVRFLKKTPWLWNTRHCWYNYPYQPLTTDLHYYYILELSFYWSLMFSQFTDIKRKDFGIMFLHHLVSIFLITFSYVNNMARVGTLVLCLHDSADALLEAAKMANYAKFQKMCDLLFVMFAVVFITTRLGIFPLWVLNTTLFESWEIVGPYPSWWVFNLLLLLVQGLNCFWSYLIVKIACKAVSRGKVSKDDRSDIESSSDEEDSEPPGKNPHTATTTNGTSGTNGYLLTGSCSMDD
Test: affinity purification with mass spectrometry; IP with anti-CERS6 antibody against anti-IgG control, Dynabeads Co-Immunoprecipitation Kit, A549 cells; SDS-PAGE, in-gel digestion, LC-MS/MS; performed twice

binding: binds
B1: LASP1 (LIM and SH3 domain protein 1), endogenous (protein, UniProt Q14847 1-261)
chain: MNPNCARCGKIVYPTEKVNCLDKFWHKACFHCETCKMTLNMKNYKGYEKKPYCNAHYPKQSFTMVADTPENLRLKQQSELQSQVRYKEEFEKNKGKGFSVVADTPELQRIKKTQDQISNIKYHEEFEKSRMGPSGGEGMEPERRDSQDGSSYRRPLEQQQPHHIPTSAPVYQQPQQQPVAQSYGGYKEPAAPVSIQRSAPGGGGKRYRAVYDYSAADEDEVSFQDGDTIVNVQQIDDGWMYGTVERTGDTGMLPANYVEAI

binding: binds
B2: CERS5, endogenous (protein, UniProt Q8N5B7 1-392)
chain: MATAAQGPLSLLWGWLWSERFWLPENVSWADLEGPADGYGYPRGRHILSVFPLAAGIFFVRLLFERFIAKPCALCIGIEDSGPYQAQPNAILEKVFISITKYPDKKRLEGLSKQLDWNVRKIQCWFRHRRNQDKPPTLTKFCESMWRFTFYLCIFCYGIRFLWSSPWFWDIRQCWHNYPFQPLSSGLYHYYIMELAFYWSLMFSQFTDIKRKDFLIMFVHHLVTIGLISFSYINNMVRVGTLIMCLHDVSDFLLEAAKLANYAKYQRLCDTLFVIFSAVFMVTRLGIYPFWILNTTLFESWEIIGPYASWWLLNGLLLTLQLLHVIWSYLIARIALKALIRGKVSKDDRSDVESSSEEEDVTTCTKSPCDSSSSNGANRVNGHMGGSYWAEE
